Patent US20070049592A1, “Bis-aryl urea compounds and methods of use” (priority 2005, published 2007)
pIC50: −log10 of the molar value. Some results were stated once for a whole list of compounds, not compound by compound.

Chains of the proteins cited; added tags and fusions are not shown. Residues count along the entry.
UniProt Q02763, 23-1124: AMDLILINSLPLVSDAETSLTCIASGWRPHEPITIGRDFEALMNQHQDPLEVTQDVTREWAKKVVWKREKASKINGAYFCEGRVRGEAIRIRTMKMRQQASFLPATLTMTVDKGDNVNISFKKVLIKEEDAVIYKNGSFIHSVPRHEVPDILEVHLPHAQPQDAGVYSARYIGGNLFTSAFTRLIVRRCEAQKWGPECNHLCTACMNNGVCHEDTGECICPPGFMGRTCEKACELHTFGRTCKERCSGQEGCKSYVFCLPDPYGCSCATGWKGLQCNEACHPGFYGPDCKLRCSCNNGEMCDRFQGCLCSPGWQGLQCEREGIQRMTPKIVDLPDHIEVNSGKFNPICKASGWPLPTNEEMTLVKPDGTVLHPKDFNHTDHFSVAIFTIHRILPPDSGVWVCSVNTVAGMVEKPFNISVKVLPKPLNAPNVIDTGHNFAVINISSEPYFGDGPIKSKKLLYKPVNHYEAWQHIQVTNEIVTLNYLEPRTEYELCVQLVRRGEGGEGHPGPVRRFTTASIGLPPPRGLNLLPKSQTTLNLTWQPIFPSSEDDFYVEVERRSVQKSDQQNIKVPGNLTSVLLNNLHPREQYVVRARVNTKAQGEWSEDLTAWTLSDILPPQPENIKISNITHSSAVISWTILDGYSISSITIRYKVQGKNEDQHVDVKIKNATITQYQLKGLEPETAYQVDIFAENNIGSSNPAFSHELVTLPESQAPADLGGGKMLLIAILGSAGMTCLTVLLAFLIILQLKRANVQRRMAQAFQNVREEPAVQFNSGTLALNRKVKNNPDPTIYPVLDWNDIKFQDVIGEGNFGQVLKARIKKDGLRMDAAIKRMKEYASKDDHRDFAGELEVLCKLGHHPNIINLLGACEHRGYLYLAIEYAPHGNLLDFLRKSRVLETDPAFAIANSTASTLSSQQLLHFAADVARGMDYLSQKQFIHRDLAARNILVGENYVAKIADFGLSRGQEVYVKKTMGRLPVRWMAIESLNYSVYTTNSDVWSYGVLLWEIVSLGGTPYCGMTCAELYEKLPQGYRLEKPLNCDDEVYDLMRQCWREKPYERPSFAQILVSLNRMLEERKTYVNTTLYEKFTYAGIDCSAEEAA
UniProt P06239, 225-509: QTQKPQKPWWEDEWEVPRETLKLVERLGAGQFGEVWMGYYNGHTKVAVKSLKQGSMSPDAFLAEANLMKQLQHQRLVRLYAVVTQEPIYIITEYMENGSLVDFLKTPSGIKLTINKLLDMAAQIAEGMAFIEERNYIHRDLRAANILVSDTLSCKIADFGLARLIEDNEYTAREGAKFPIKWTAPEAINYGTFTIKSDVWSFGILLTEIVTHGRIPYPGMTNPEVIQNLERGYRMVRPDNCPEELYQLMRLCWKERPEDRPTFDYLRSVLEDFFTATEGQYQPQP

Key:
Tie-2 kinase enzyme = Tie-2 kinase enzyme (Homo sapiens, UniProt Q02763); assay: Tie-2 Homogenous Time Resolved Flourescent (HTRF) kinase assay; type: biochemical; settings: read-out: IC50's for the inhibition of Tie-2 as measured by the HTRF assay
Lck kinase enzyme = molecular target: T1, Lck kinase enzyme (Homo sapiens, UniProt P06239); assay: LCK Homogenous Time Resolved Flourescent (HTRF) kinase assay; type: biochemical; settings: read-out: average IC50 value in the human HTRF assay for the inhibition of the Lck kinase enzyme
T1 construct: LCK KD GST (225-509); GST

| pIC50 (Tie-2 kinase enzyme) | pIC50 (Lck kinase enzyme) | Compound |
| --- | --- | --- |
| ≥ 5.30 | – | CNc1cc(N(C)C(=O)Nc2cc(C(=O)Nc3cccc(C(C)C)c3)ccc2C)ncn1 [Example 17, 4-methyl-N-(3-(1-methylethyl)phenyl)-3-(((methyl(6-(methylamino)-4-pyrimidinyl)amino)carbonyl)amino) benzamide] |
| ≥ 5.30 | – | CNc1cc(N(C)C(=O)Nc2cc(C(=O)Nc3ccc4sc(C)nc4c3)ccc2C)ncn1 [Example 33, 4-methyl-N-(2-methyl-1,3-benzothiazol-5-yl)-3-(((methyl(6-(methylamino)-4-pyrimidinyl)amino)carbonyl)amino)benzamide] |
| ≥ 5.30 | – | CNc1ncnc(N(C)C(=O)Nc2cc(C(=O)Nc3cccc(C(F)(F)F)c3C)ccc2C)n1 [Example 37, 4-methyl-3-(((methyl(4-(methylamino)-1,3,5-triazin-2-yl)amino)carbonyl)amino)-N-(2-methyl-3-(trifluoromethyl)phenyl)benzamide] |
| ≥ 5.30 | – | CNc1ncnc(N(C)C(=O)Nc2cc(C(=O)Nc3cccc(N(C)C)c3)ccc2C)n1 [Example 28] |
| ≥ 5.30 | – | CNC(=O)c1cc(N(C)C(=O)Nc2cc(C(=O)NCc3ccccc3)ccc2C)ccn1 [Example 51, N-methyl-4-(methyl(((2-methyl-5-(((phenylmethyl)amino)carbonyl)phenyl)amino)carbonyl)amino)-2-pyridinecarboxamide] |
| – | ≥ 5.30 | COc1ccc(C2CCCCC2)cc1NC(=O)c1ccc(C)c(NC(=O)N(CCCN2CCOCC2)c2ccncn2)c1 [Example 46, N-(5-cyclohexyl-2-(methyloxy)phenyl)-4-methyl-3-((((3-(4-morpholinyl)propyl)(4-pyrimidinyl)amino)carbonyl)amino)benzamide] |
| ≥ 5.30 | – | CNc1cc(N(C)C(=O)Nc2cc(C(=O)Nc3ccc(C(F)(F)F)cc3)ccc2C)ncn1 [Example 32, 4-methyl-3-(((methyl(6-(methylamino)-4-pyrimidinyl)amino)carbonyl)amino)-N-(4-(trifluoromethyl)phenyl)benzamide] |
| ≥ 5.30 | ≥ 5.30 | CNC(=O)c1cc(N(C)C(=O)Nc2cc(C(=O)N3CCCc4ccc(C(F)(F)F)cc43)ccc2C)ccn1 [Example 71, N-methyl-4-(methyl(((2-methyl-5-((7-(trifluoromethyl)-3,4-dihydro-1(2H)-quinolinyl)carbonyl)phenyl)amino)carbonyl)amino)-2-pyridinecarboxamide] |
| ≥ 5.30 | – | CNc1cc(N(C)C(=O)Nc2cc(C(=O)Nc3ccc(C(C)(C)C)cc3)ccc2C)ncn1 [Example 25] |
| ≥ 5.30 | – | CNc1nccc(N(CCCN2CCOCC2)C(=O)Nc2cc(C(=O)Nc3cccc(C(C)C)c3)ccc2C)n1 [Example 29, 4-methyl-3-((((2-(methylamino)-4-pyrimidinyl) (3-(4-morpholinyl)propyl)amino)carbonyl)amino)-N-(3-(1-methylethyl)phenyl)benzamide] |
| ≥ 5.30 | – | CNc1cc(N(C)C(=O)Nc2cc(C(=O)Nc3cccc(C(F)(F)F)c3C)ccc2C)ncn1 [Example 20, 4-methyl-3-(((methyl(6-(methylamino)-4-pyrimidinyl)amino)carbonyl)amino)-N-(2-methyl-3-(trifluoromethyl)phenyl)benzamide] |
| ≥ 5.30 | – | CNc1ncnc(N(C)C(=O)Nc2cc(C(=O)Nc3ccc4sc(C)nc4c3)ccc2C)n1 [Example 35, 4-methyl-N-(2-methyl-1,3-benzothiazol-5-yl)-3-(((methyl(4-(methylamino)-1,3,5-triazin-2-yl)amino)carbonyl)amino)benzamide] |
| ≥ 5.30 | – | Cc1ccc(C(=O)Nc2cccc(C(C)C)c2)cc1NC(=O)N(CCCN1CCOCC1)c1ccncn1 [Example 22, 4-methyl-N-(3-(1-methylethyl)phenyl)-3-((((3-(4-morpholinyl)propyl)(4-pyrimidinyl)amino)carbonyl)amino)benzamide] |
| ≥ 5.30 | – | CNc1cc(N(C)C(=O)Nc2cc(C(=O)Nc3ccc(Cl)cc3)ccc2C)ncn1 [Example 40, N-(4-chlorophenyl)-4-methyl-3-(((methyl(6-(methylamino)-4-pyrimidinyl)amino)carbonyl)amino)benzamide] |
| – | ≥ 5.30 | CNc1cc(N(C)C(=O)Nc2cc(C(=O)Nc3ccccc3)ccc2C)ncn1 [Example 41, 4-methyl-3-(((methyl(6-(methylamino)-4-pyrimidinyl)amino)carbonyl)amino)-N-phenylbenzamide] |
| ≥ 5.30 | ≥ 5.30 | CNc1cc(N(C)C(=O)Nc2ccc(Nc3nnc(-c4ccccc4)c4ccccc34)cc2)ncn1 [Example 73] |
| ≥ 5.30 | – | CNc1cc(N(C)C(=O)Nc2cc(C(=O)Nc3ccc(C(C)C)c(C)c3)ccc2C)ncn1 [Example 19] |

| pIC50 (Tie-2 kinase enzyme) | pIC50 (Lck kinase enzyme) | Compound |
| --- | --- | --- |
| ≥ 5.30 | – | CNc1cc(N(C)C(=O)Nc2cc(C(=O)Nc3cccc(-c4ccccc4)c3)ccc2C)ncn1 [Example 31, N-(1,1′-biphenyl-3-yl)-4-methyl-3-(((methyl(6-(methylamino)-4-pyrimidinyl)amino)carbonyl)amino)benzamide] |
| ≥ 5.30 | – | CNc1cc(N(C)C(=O)Nc2cc(C(=O)Nc3ccc4ccccc4c3)ccc2C)ncn1 [Example 23, 4-methyl-3-(((methyl(6-(methylamino)-4-pyrimidinyl)amino)carbonyl)amino)-N-(2-naphthalenyl) benzamide] |
| ≥ 5.30 | ≥ 5.30 | CNc1cc(N(C)C(=O)Nc2cc(C(=O)Nc3cc(C4CCCCC4)ccc3OC)ccc2C)ncn1 [Example 43, N-(5-cyclohexyl-2-(methyloxy)phenyl)-4-methyl-3-(((methyl(6-(methylamino)-4-pyrimidinyl)amino)carbonyl)amino)benzamide] |
| ≥ 5.30 | – | CNc1cc(N(C)C(=O)Nc2cc(C(=O)Nc3cccc(C(F)(F)F)c3)ccc2C)ncn1 [Example 16, ′4-methyl-3-(((methyl(6-(methylamino)-4-pyrimidinyl)amino)carbonyl)amino)-N-(3-(trifluoromethyl)phenyl) benzamide] |
| ≥ 5.30 | – | CNc1cc(N(C)C(=O)Nc2cc(C(=O)Nc3cccc(N(C)C)c3)ccc2C)ncn1 [Example 26, N-(3-(dimethylamino)phenyl)-4-methyl-3-((methyl(6-(methylamino)-4-pyrimidinyl)amino)carbonylamino)benzamide] |
| ≥ 5.30 | – | CNc1ncnc(N(C)C(=O)Nc2cc(C(=O)Nc3ccc(C(C)(C)C)cc3)ccc2C)n1 [Example 27, N-(4-1,1-(dimethylethyl)phenyl)-4-methyl-3-(((methyl(4-(methylamino)-1,3,5-triazin-2-yl)amino)carbonyl)amino)benzamide] |
| ≥ 5.30 | ≥ 5.30 | CNc1ncnc(N(C)C(=O)Nc2cc(C(=O)NCc3ccccc3)ccc2C)n1 [Example 49, 4-methyl-3-(((methyl(4-(methylamino)-1,3,5-triazin-2-yl)amino)carbonyl)amino)-N-(phenylmethyl) benzamide] |
| ≥ 5.30 | – | CNc1cc(N(C)C(=O)Nc2cc(C(=O)Nc3cc(OC)cc(C(F)(F)F)c3)ccc2C)ncn1 [Example 18, 4-methyl-3-(((methyl(6-(methylamino)-4-pyrimidinyl)amino)carbonyl)amino)-N-(3-(methyloxy)-5-(trifluoromethyl)phenyl) benzamide] |
| – | ≥ 5.30 | CNc1ncnc(N(C)C(=O)Nc2cc(C(=O)Nc3ccccc3)ccc2C)n1 [Example 44, 4-methyl-3-(((methyl(4-(methylamino)-1,3,5-triazon-2-yl)amino)carbonyl)amino)-N-phenylbenzamide] |
| – | ≥ 5.30 | CCCCNC(=O)c1ccc(C)c(NC(=O)N(C)c2ncnc(NC)n2)c1 [Example 48, N-butyl-4-methyl-3-(((methyl(4-(methylamino)-1,3,5-triazin-2-yl)amino)carbonyl)amino)benzamide] |
| ≥ 5.30 | ≥ 5.30 | CCCCNC(=O)c1ccc(C)c(NC(=O)N(C)c2cc(NC)ncn2)c1 [Example 42, N-butyl-4-methyl-3-(((methyl(6-(methylamino)-4-pyrimidinyl)amino)carbonyl)amino)benzamide] |
| ≥ 5.30 | – | CNc1ncnc(N(C)C(=O)Nc2cc(C(=O)Nc3ccc(C(C)C)c(C)c3)ccc2C)n1 [Example 38, 4-methyl-3-(((methyl(4-(methylamino)-1,3,5-triazin-2-yl)amino)carbonyl)amino)-N-(3-methyl-4-(1-methylethyl)phenyl)benzamide] |
| ≥ 5.30 | – | CNc1cc(N(C)C(=O)Nc2cc(C(=O)Nc3cccc(C(F)(F)F)c3F)ccc2C)ncn1 [Example 24, N-(2-fluoro-3-(trifluoromethyl)phenyl)-4-methyl-3-((methyl(6-(methylamino)-4-pyrimidinyl)amino)carbonylamino)benzamide] |
| ≥ 5.30 | – | CNc1ncnc(N(C)C(=O)Nc2cc(C(=O)Nc3ccc4ccccc4c3)ccc2C)n1 [Example 30, 4-methyl-3-(((methyl(4-(methylamino)-1,3,5-triazin-2-yl)amino)carbonyl)amino)-N-(2-naphthalenyl) benzamide] |
| ≥ 5.30 | – | CNc1ncnc(N(C)C(=O)Nc2cc(C(=O)Nc3cc(OC)cc(C(F)(F)F)c3)ccc2C)n1 [Example 36, 4-methyl-3-(((methyl(4-(methylamino)-1,3,5-triazin-2-yl)amino)carbonyl)amino)-N-(3-(methyloxy)-5-(trifluoromethyl)phenyl)benzamide] |
| ≥ 5.30 | – | CNc1cc(N(C)C(=O)Nc2cc(C(=O)Nc3ccc4c(c3)N(C(C)=O)CC4(C)C)ccc2C)ncn1 [Example 21, N-(1-acetyl-3,3-dimethyl-2,3-dihydro-1H-indol-6-yl)-4-methyl-3-(((methyl(6-(methylamino)-4-pyrimidinyl)amino)carbonyl)amino)benzamide] |
| ≥ 5.30 | ≥ 5.30 | CNc1cc(N(C)C(=O)Nc2cc(C(=O)NCc3ccccc3)ccc2C)ncn1 [Example 45, 4-methyl-3-(((methyl(6-(methylamino)-4-pyrimidinyl)amino)carbonyl)amino)-N-(phenylmethyl) benzamide] |
